In PubChem BioAssay AID540276 (National Center for Advancing Translational Sciences (NCATS), 2011):
“And” between values parts separate entries of the source, which are not always exact repeats. Identical values can stand only once. Screen size: about 300,000 compounds; about 5,400 (1.8%) were called active. Inconclusive results, whose numbers are uncertain, are shown with a selection of clear calls. The call rests on the fitted dose curve; tested in HEK293 cells. A potency beside an inconclusive call is a rough fit, not a confirmed value.

Assay: qHTS for inhibitors of binding or entry into cells for Marburg Virus
Settings: Marburg virus pseudotyped entry inhibition, cell reporter; series mostly up to 37.8 µM
Potency means the concentration at half of the fitted maximal effect.

Row | SMILES | Potency
1 | COc1ccc(NC(=S)Nc2ccc(OCc3ccccc3)cc2)cc1OC | inconclusive: 10 µM [inhibitor, partial curve]
2 | O=C(COc1ccccc1Cl)c1ccc[nH]1 | inconclusive: 12.6 µM [activator, partial curve, poor fit]
3 | COc1cc2c(cc1OC)[C@@H]1O[C@](CCCCN3C(=O)c4ccccc4C3=O)(C2)OC2=C1C(=O)CCC2 | inconclusive: 0.15 µM [activator, partial curve, poor fit]
4 | Cc1ccc2nc(SCC(=O)Nc3ccc4c(c3)OCCO4)nc(=O)n2c1 | inconclusive: 35.5 µM [inhibitor, single point]
5 | COc1ccc(CC(=O)Nc2ccc(S(=O)(=O)N3CCCCC3)cc2)cc1OC | inconclusive: 11.2 µM [inhibitor, partial curve, poor fit]
6 | COc1ccc(/C(C)=N/NC(=O)c2ccccc2N)cc1 | inconclusive: 12.6 µM [activator, partial curve, poor fit]
7 | CC(=O)c1cccc(NC(=O)CN2C(=S)NC(C)(C)CC2C)c1 (configuration not stated) | inactive
8 | COc1ccc(Nc2nc3ccccc3n3c(N)nnc23)cc1 | inconclusive: 8.91 µM [activator, partial curve, poor fit]
9 | COc1cccc(NC(=O)N(CCCN2CCOCC2)C(C)c2cc3ccccc3o2)c1 (configuration not stated) | inactive
10 | Cc1ccc(OCc2cc(C(=O)N(CCO)Cc3cccs3)no2)cc1C | inactive
11 | O=C(Nc1ccccn1)c1ccc(CN(c2ccccc2)S(=O)(=O)c2ccccc2)cc1 | inconclusive: 11.2 µM [inhibitor, partial curve, poor fit]
12 | COc1ccc(C(C(=O)NC2CCCC2)N(C(=O)c2snc(C(N)=O)c2N)c2cccc(O)c2)cc1 (configuration not stated) | inconclusive: 11.2 µM [inhibitor, single point]
13 | N#C/C(=C/c1cccc([N+](=O)[O-])c1)c1nnc2n1CCCCC2 | inconclusive: 28.2 µM [inhibitor, single point]
14 | Fc1ccccc1CNCC1CCCO1 (configuration not stated) | inconclusive: 1.26 µM [inhibitor, single point]
15 | c1ccc(-n2nnc3ccccc32)nc1 | inactive
16 | CCCCNC(=O)C1C2C=CC3(CN(Cc4ccccc4Cl)C(=O)C13)O2 (configuration not stated) | inconclusive: 3.66 µM [inhibitor, single point]
17 | Cc1nn(C)c(C)c1CNC(=O)c1nn2c(c1Cl)NC(c1cccs1)CC2C(F)(F)F (configuration not stated) | inactive and inconclusive: 2.31 µM [inhibitor, partial curve, poor fit]
18 | COc1ccccc1C(c1nnnn1CCc1ccccc1)N1CCCCCC1 (configuration not stated) | inconclusive: 10 µM [inhibitor, partial curve, poor fit]
19 | Cc1nn(C(=O)c2cccs2)c(N)c1-c1ccccc1 | inconclusive: 8.2 µM [activator, partial curve, poor fit]
20 | COC(=O)c1cc(NS(=O)(=O)c2ccc(N3CCC(C)CC3)c([N+](=O)[O-])c2)cc(C(=O)OC)c1 | inconclusive: 0.398 µM [activator, partial curve, poor fit]
21 | O=C(COn1nnc2ccc(Cl)cc21)NC1CCS(=O)(=O)C1 (configuration not stated) | inconclusive: 10 µM [activator, single point]

Row | SMILES | Potency
22 | COc1cc2c(C(=O)N3CCN(c4ccccc4C)CC3)c(C)oc2cc1Br | inactive
23 | Cc1ccc(S(=O)(=O)CC(=O)Nc2ccccn2)cc1 | inactive
24 | CCN(CC(=O)NC(C)(C)C)C(=O)C(c1ccccc1)c1ccccc1 | inactive
25 | Cc1ccsc1CN(Cc1ccco1)c1cnc(S(C)(=O)=O)nc1C(=O)Nc1ccc(Cl)cc1 | inconclusive: 35.5 µM [inhibitor, single point]
26 | CCn1c(-c2ccccc2)c(C(=O)CC#N)c2ccccc21 | inconclusive: 31.6 µM [inhibitor, single point]
27 | CCOc1ccc(NC(=O)CNC(=O)c2ccc(OC)cc2)cc1 | inconclusive: 17.8 µM [inhibitor, single point]
28 | Oc1ccc(Br)cc1-c1nc2cnccn2c1NC1CCCCC1 | inconclusive: 29.1 µM [inhibitor, single point]
29 | COc1ccc(CNC(=O)c2cc(S(=O)(=O)N3CCCCC3)ccc2Cl)cc1OC | inconclusive: 8.91 µM [inhibitor, partial curve, poor fit]
30 | O=C(N=c1ccn(-c2nc3ccccc3nc2NS(=O)(=O)c2ccccc2)cc1)c1cccs1 | inconclusive: 0.13 µM [activator, single point]
31 | Cc1cc(C)c2nc(N3CCCN(C(=O)c4ccco4)CC3)c(C#N)cc2c1 | inactive
32 | Cc1cccc2cc3c(N)c(C#N)sc3nc12 | inconclusive: 29.1 µM [inhibitor, single point]
33 | OCC1(CCc2ccccc2)CCCN(C/C=C/c2ccccc2)C1 (configuration not stated) | inconclusive: 7.08 µM [inhibitor, partial curve, poor fit]
34 | Cc1ccccc1C(=O)N1CCC(c2nc(-c3ccc(S(=O)(=O)N4CCCC4)cc3)no2)CC1 | inactive
35 | CCn1c(=O)c([N+](=O)[O-])c(Cl)c2ccccc21 | inconclusive: 8.91 µM [inhibitor, partial curve, poor fit]
36 | CSc1nc2ccc(NC(=O)c3ccc(F)c(F)c3)cc2s1 | inconclusive: 3.16 µM [activator, full curve]
37 | CC(=O)Nc1ccc(N=c2cc([N+](=O)[O-])cc(Cl)n2O)cc1 | inconclusive: 17.8 µM [inhibitor, partial curve, poor fit]
38 | C=CCn1c(O)c(C(CC)=NCCc2c[nH]c3ccccc23)c(=O)[nH]c1=O | inconclusive: 10 µM [inhibitor, partial curve, poor fit]
39 | N=c1ccn(Cc2cccc(Cl)c2)cc1 | inconclusive: 8.91 µM [inhibitor, partial curve]
40 | C=CCn1c(CCNC(=O)c2cccs2)nnc1SCC(=O)Nc1cccc(C(C)=O)c1 | inactive
41 | C/C(=N\NC(=O)CCc1ccccc1)c1ccc(Br)cc1 | inactive
42 | CC[n+]1c(C)n(-c2ccccc2)c2ccc(NC(C)=O)cc21 | inconclusive: 2.82 µM [inhibitor, partial curve, poor fit]
